At least one structure is not confirmed: it was looked up by name or label, or the drawing left a doubt.
What was measured:
HDFs = test: Conversion of dermal fibroblasts to myocytes (MyHC ICC); type: cell-based, human; conditions: HDF transfected with MYOD1 repRNA, inhibitor in all media, MyHC ICC day 7-10 post-transfection
[1] = test system: Human dermal fibroblasts (HDFs); type: cell-based; conditions: HDF transfected with GFP-IRES-Puro^R repRNA; media with 200 ng/ml B18R or 10 μM ruxolitinib; time course of 14 days

Structure (SMILES) | support of MYOD1 repRNA-mediated HDF to myocyte conversion by inhibitor (HDFs) | effect on repRNA-mediated expression of GFP in HDF [1]
CC[C@@H]1CN(C(=O)NCC(F)(F)F)C[C@@H]1c1cnc2cnc3[nH]ccc3n12 [upadacitinib] | capable of maintaining repRNA expression to a sufficient level to permit cell conversion | 
N#CC[C@H](C1CCCC1)n1cc(-c2ncnc3[nH]ccc23)cn1 [ruxolitinib] | capable of maintaining repRNA expression to a sufficient level to permit cell conversion | maintained repRNA-mediated expression of GFP

From patent US20240240201A1, “CELL CONVERSION” (MOGRIFY LIMITED, priority 2021, published 2024)
